We go through one substance from patent US20040037775A1 (priority 2000, published 2004).

A short description of this data set: solution-phase peptide synthesis; Fmoc-PAL-PEG-PS; HATU/DIEA. The conditions noted are these: cyclisation step, on linear precursor.

For the substance cyclic-ITDGEA (PRGGSK; cyclic), the cyclisation yield is reported as 45%.
